PubChem BioAssay AID1671195 | Yale University, 2021
The deposit covers about 22,000 reagents; below is a random part of them. Over the whole deposit, about 1,510 (6.9%) were called active. 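Active includes knockdowns raising or lowering LDL uptake; positive z-scores mean more uptake, negative mean less.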

Assay: 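Regulators of LDL receptor activity judged by labelled LDL uptake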 (primary screen)
System: human Huh7 hepatoma cells
Reagents: siRNA pool against human genes, 18 nM
Time to read-out: about 2 to 2.5 days of knockdown, then 8 h LDL uptake
Conditions: DiI-labelled LDL at 30 µg/ml for 8 h, in lipoprotein-deficient serum medium
Read-out: 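Fluorescent LDL signal imaged in cells, scaled to the plate median, robust z-score for each replicate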
Reading the numbers: robust z-score: higher = more LDL uptake after knockdown
Rule for the call: 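a gene counts as active if at least two replicate z-scores exceed ±2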

no.	gene knocked down	robust z-score, replicate 1	robust z-score, replicate 2	robust z-score, replicate 3	outcome
1	PTPN2	-0.216	-0.548	-0.459	inactive
2	MRPL43	0.455	0.779	0.212	inactive
3	LOC440538 (retired record)	-2.53	-2.92	-2.54	active
4	TCTN2	-0.365	0.23	-0.381	inactive
5	NIPAL1	0.529	0.493	0.486	inactive
6	MINK1	-1.75	-1.26	-1.48	inactive
7	LY6D	2.42	-0.0823	1.16	inactive
8	PDIA3	0.934	-0.15	0.406	inactive
9	TTLL3	-0.782	1.11	1.38	inactive
10	POTEE	-0.903	-1.83	-1.36	inactive
11	LMBR1L	0.556	0.851	0.332	inactive
12	RGR	-1.64	1.36	1.75	inactive
13	LOC400523 (retired record)	-0.229	-0.597	-0.724	inactive
14	SERP1	-0.719	0.351	-1.7	inactive
15	KCNH3	-1.97	-1.86	-1.84	inactive
16	AOAH	-0.0606	-0.292	-0.0343	inactive
17	USP10	-0.221	-0.503	0.0758	inactive
18	SUMF1	-0.772	-0.744	-0.604	inactive
19	ASPSCR1	2.9	3.39	3.91	active
20	KCNA7	-1.18	-0.245	-1.62	inactive
21	SEC22C	1.5	0.358	1.45	inactive
22	KLF11	-0.859	-0.574	-0.61	inactive
23	NXNL1	-0.299	-0.171	-0.257	inactive
24	LOC440968 (retired record)	-0.674	0.141	-0.159	inactive
25	LOC442009 (retired record)	0.41	0.644	0.579	inactive
26	LINC00941	-0.592	-0.89	-0.932	inactive
27	GPR87	0.108	-1.06	-0.62	inactive
28	SFT2D2	-1.63	-1.49	-1.63	inactive
29	LOC439938 (retired record)	-0.854	-0.877	-1.12	inactive

A few values from above:
For “outcome”, LOC439938 (retired record) is entered as inactive
Under “robust z-score, replicate 3”, MINK1 is entered as -1.48
LY6D, robust z-score, replicate 1: 2.42
For “outcome”, LOC400523 (retired record) has inactive
Value of TCTN2 in “robust z-score, replicate 3”: -0.381

The results go on.
no.	gene knocked down	robust z-score, replicate 1	robust z-score, replicate 2	robust z-score, replicate 3	outcome
30	ZBTB37	-0.00143	-1.03	-0.43	inactive
31	PHACTR1	-0.584	-0.647	-0.359	inactive
32	MARCHF11-DT	-1.1	-1.53	-1.11	inactive
33	N4BP2	0.921	-0.618	-0.864	inactive
34	SLC26A7	-0.557	-0.929	-0.382	inactive
35	PPIAL4A	0.385	0.541	0.0463	inactive
36	TIGD1	-0.403	0.301	-1.28	inactive
37	LOC441555 (retired record)	2.05	-0.222	0.44	inactive
38	TCTN1	1.68	1.11	1.08	inactive
39	SCGB2B2	-0.569	-0.297	-0.198	inactive
40	EFHB	-0.0808	0.00769	-0.189	inactive
41	CALR	0.186	-0.158	0.147	inactive
42	MTX3	0.515	0.778	0.667	inactive
43	TRIM61	-1.18	0.213	0.0792	inactive
44	GPR150	0.969	0.678	1.38	inactive
45	CDH1	0.761	0.276	0.587	inactive
46	DSCAML1	-0.46	1.24	1.08	inactive
